Source: US20260232767A1 (Janssen Pharmaceutica NV, priority 2023, published 2026)

Experiment: general procedure: Fmoc solid-phase peptide synthesis; Rink amide AM resin (substitution: 0.95 mmol/g); DIC
Conditions: purification step, partial HCl salt

Substance: Ac-[Pen]*-N-T-[W(7-Me)]-[Lys(Ac)]-[Pen]*-Phe[4-(2-aminoethoxy)]-[2-Nal]-[THP]-E-N-[3-Pal]-Sarc-NH2 (*[Pen]-[Pen]* form disulfide bond)
- final HPLC purity: 99.4%
